Measurements as given in publication PMC6977653.
No constants are given. Whether binding was seen depends on the method and setting. Binding seen in cells or lysates may run through a third protein. Some results given as binding are weak or reduced against the parent protein; the word gives no strength. Tags and fused reporters may be left off the sequences shown.

Chains of the proteins cited; added tags and fusions are not shown.
UniProt P49841: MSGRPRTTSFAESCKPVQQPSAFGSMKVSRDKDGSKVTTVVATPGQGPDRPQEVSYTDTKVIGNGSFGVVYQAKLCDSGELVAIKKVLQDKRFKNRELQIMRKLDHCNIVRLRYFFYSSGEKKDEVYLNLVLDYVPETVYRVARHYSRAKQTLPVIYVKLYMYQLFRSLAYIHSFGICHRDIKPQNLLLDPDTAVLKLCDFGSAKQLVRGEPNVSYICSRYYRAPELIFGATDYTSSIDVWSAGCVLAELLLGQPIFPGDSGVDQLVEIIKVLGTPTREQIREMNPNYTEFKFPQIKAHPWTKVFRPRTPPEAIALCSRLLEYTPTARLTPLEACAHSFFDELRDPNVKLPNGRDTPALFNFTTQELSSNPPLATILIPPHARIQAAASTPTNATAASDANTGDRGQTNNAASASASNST
UniProt O95863: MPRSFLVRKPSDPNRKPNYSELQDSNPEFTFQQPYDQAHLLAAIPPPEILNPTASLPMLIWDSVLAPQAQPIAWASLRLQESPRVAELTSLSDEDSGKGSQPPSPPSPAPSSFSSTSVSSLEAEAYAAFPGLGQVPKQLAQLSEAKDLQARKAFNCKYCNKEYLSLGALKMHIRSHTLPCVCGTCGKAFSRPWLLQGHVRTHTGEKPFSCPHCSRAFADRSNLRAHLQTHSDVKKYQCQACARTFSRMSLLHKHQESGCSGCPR

Molecular target: GSK3β (UniProt P49841)
Experiment: co-IP; HEK293T transfected with GSK3β, FHL3-HA (0, 5, 15 ug plasmid), snail1 and twist1 for 48 h; RIPA lysate; immune magnetic beads (anti-Myc, anti-HA, anti-Flag), 4 °C, 24 h; TBS washing; western blot

binding	Molecule
binds	snail1 (from UniProt O95863 1-264)
binds	four-and-a-half LIM domains 3 (FHL3), HA-tagged (protein, UniProt Q13643 1-280) MSESFDCAKCNESLYGRKYIQTDSGPYCVPCYDNTFANTCAECQQLIGHDSRELFYEDRHFHEGCFRCCRCQRSLADEPFTCQDSELLCNDCYCSAFSSQCSACGETVMPGSRKLEYGGQTWHEHCFLCSGCEQPLGSRSFVPDKGAHYCVPCYENKFAPRCARCSKTLTQGGVTYRDQPWHRECLVCTGCQTPLAGQQFTSRDEDPYCVACFGELFAPKCSSCKRPIVGLGGGKYVSFEDRHWHHNCFSCARCSTSLVGQGFVPDGDQVLCQGCSQAGP
